Laboratory results: the supplement of paper PMC10849652
This is one part of the list.

By UniProt entry, the sequences of proteins in these tests, tags left out. Where a name states a change or a piece, a line headed by the entry shows the natural chain unless it says otherwise.
UniProt Q9H019: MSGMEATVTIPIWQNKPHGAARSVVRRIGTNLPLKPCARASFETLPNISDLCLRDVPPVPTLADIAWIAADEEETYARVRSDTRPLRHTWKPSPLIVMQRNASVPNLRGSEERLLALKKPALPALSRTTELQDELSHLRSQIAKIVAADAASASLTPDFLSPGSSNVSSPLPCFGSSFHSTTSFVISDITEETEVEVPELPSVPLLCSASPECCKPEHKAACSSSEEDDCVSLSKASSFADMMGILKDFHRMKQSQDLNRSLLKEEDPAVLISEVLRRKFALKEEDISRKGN
UniProt Q969V5: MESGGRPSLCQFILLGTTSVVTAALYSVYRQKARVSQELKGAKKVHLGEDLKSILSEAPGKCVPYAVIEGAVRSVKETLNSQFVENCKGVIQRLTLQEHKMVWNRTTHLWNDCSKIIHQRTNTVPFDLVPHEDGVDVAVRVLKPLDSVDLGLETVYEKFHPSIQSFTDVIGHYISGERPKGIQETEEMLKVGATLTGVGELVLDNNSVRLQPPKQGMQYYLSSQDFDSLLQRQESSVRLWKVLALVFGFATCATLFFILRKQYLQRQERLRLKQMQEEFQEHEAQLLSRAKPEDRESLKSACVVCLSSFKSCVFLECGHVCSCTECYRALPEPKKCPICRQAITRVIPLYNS
UniProt Q9P0P8: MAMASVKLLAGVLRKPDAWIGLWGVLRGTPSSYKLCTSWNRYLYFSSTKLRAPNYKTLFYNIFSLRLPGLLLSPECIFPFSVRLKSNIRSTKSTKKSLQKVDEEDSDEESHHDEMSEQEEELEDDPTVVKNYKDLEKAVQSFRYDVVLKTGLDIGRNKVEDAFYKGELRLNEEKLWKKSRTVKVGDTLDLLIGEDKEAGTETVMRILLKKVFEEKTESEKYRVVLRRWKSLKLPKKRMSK
UniProt Q96H55, whole entry, looked up: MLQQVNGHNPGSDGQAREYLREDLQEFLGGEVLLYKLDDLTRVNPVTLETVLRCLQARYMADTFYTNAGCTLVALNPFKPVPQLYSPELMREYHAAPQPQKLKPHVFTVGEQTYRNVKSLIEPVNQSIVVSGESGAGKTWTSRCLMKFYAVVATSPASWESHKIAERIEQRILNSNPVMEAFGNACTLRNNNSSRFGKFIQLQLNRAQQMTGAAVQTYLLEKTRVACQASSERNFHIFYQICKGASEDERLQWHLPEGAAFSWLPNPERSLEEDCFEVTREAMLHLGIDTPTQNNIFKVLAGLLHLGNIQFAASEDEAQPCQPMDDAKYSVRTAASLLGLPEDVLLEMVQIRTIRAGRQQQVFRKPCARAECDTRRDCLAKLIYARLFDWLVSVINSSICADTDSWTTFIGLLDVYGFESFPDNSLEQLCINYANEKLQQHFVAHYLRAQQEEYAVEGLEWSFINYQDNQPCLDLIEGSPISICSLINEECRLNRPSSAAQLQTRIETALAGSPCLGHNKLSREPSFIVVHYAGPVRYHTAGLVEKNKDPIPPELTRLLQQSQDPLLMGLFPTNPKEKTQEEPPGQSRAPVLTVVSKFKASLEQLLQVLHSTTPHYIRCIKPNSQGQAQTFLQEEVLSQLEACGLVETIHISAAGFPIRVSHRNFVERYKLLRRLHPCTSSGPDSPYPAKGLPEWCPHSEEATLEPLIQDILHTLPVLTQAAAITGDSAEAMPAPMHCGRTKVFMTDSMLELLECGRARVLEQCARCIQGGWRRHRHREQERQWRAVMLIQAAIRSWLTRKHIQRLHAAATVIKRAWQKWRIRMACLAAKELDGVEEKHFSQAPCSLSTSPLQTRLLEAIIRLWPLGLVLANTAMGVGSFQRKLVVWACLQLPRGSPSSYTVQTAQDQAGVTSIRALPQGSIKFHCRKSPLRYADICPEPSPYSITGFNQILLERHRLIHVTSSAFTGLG
UniProt Q9H903: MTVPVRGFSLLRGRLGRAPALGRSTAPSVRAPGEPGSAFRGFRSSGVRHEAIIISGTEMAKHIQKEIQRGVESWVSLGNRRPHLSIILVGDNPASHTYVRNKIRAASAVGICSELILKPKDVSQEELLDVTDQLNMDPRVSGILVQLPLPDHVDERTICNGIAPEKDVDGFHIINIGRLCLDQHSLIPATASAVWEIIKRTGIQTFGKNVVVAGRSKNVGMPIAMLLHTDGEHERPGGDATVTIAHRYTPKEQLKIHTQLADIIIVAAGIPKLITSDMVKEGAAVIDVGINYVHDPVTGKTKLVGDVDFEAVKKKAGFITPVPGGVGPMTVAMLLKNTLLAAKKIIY
UniProt Q9NXD2: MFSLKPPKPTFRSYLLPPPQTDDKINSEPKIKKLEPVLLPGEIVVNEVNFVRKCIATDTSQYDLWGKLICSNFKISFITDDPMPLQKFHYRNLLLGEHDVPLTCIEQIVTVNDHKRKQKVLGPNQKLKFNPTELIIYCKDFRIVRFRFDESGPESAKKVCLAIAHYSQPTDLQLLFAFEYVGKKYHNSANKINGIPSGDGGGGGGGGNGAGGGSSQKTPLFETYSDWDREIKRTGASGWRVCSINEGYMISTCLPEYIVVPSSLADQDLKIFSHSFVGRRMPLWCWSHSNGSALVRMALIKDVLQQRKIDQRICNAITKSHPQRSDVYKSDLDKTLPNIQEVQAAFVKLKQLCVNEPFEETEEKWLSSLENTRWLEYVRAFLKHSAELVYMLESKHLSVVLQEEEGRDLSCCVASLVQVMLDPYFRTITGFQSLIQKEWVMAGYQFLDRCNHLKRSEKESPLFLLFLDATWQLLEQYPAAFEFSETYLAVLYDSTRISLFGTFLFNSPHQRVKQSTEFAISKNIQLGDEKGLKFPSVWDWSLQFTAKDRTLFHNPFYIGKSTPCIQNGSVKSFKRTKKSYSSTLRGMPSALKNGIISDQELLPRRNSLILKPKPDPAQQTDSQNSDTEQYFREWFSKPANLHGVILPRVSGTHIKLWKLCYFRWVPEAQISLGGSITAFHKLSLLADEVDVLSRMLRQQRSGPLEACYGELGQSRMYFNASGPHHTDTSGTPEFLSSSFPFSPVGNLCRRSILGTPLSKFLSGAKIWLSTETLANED
UniProt Q9H6N6: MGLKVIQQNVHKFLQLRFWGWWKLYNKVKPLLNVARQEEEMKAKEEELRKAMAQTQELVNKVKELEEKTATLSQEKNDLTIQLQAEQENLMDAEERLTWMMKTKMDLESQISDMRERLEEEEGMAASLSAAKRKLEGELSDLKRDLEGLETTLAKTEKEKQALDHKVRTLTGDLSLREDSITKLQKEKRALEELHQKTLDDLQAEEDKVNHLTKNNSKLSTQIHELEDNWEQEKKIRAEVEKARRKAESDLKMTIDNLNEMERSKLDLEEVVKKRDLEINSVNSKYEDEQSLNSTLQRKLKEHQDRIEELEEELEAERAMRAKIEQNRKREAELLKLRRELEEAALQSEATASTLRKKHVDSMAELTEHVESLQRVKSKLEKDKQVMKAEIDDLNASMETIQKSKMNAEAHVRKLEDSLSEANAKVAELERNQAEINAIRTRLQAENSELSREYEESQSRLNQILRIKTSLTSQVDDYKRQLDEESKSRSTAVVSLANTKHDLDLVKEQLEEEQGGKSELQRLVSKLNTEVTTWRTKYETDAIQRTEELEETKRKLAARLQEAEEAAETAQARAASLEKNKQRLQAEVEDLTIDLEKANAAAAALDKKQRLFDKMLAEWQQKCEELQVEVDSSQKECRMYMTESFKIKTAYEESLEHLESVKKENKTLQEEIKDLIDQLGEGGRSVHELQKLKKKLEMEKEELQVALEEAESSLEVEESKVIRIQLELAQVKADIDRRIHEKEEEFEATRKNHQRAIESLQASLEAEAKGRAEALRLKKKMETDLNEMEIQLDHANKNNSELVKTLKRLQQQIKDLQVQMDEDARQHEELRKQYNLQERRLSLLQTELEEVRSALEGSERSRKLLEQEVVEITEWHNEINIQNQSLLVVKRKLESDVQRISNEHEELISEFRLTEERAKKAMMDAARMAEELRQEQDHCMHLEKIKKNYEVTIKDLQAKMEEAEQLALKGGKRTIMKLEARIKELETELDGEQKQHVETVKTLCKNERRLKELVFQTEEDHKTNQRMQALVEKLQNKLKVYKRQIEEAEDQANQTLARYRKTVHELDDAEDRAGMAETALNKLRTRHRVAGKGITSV

What was measured:
Test in all cases: log2 fold change, soluble protein after heating vs DMSO (PISA); higher = thermal stabilisation; K562 cells, 10 uM, 30 min; active = over 0.2 and 3.5 SD of the protein, either way, in both replicates (recomputed)
erlotinib = compound: C#Cc1cccc(Nc2ncnc3cc(OCCOC)c(OCCOC)cc23)c1 [erlotinib]
In short: (§1)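 Values are thermal stability changes relative to control samples and are taken from duplicates. They are stated as log2 fold changes. Before quantification by TMTpro 16plex LC-MS/MS with equalised channel sums, K562 cells at 2×10^6 cells/mL were treated with 10 μM compound for 30 min, heated in aliquots for 3 min across 48°C-58°C, pooled, extracted in PBS with 0.5% NP-40 at 4°C, and centrifuged at 21,000xg for 90 min to give the soluble supernatant.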

[1] = compound: C/C(=N\NC(=O)C1=CC(=CC=C1)S(=O)(=O)N2CCOCC2)/C3=C(C=CC(=C3)Cl)O
In short: as §1

[2] = compound: C1=CC(=C(C=C1Cl)C2=NC3=NC=CN=C3C(=N2)NC4=CC=NC=C4)F
In short: as §1

[3] = compound: C1=CC(=CC=C1C2=NC3=C(N2)C=C(C=C3)C(=O)N)OC4=CC=C(C=C4)Cl
In short: as §1

[4] = compound: C1=CC2=C(C=CC(=C2)/C=C\3/C(=O)NC(=NCC4=CC=CS4)S3)N=C1
In short: as §1

[5] = compound: C1=CC2=NC=CN=C2C=C1/C=C/3\C(=O)NC(=O)S3
In short: as §1

[6] = compound: C1=CC=C(C=C1)C2=NC(=C(N2)C3=CC=NC=C3)C4=CC(=C(C=C4)Cl)O
In short: as §1

[7] = compound: C1=CC=C2C(=C1)C3=NNC4=CC=CC(=C43)C2=O
In short: as §1

[8] = compound: C1CCN(C1)C(=O)NC2=CC=CC(=C2)NC3=NC=C(C(=N3)NCCC4=CN=CN4)Br
In short: as §1

[9] = compound: C1CN(CCC1(CC2=CC=C(C=C2)Cl)N)C3=NC=NC4=C3C=CN4
In short: as §1

IRAK-1-4 Inhibitor I = compound: C1COCCN1CCN2C3=CC=CC=C3N=C2NC(=O)C4=CC(=CC=C4)[N+](=O)[O-] [IRAK-1-4 Inhibitor I]
In short: as §1

ibrutinib = compound: C=CC(=O)N1CCC[C@@H](n2nc(-c3ccc(Oc4ccccc4)cc3)c3c(N)ncnc32)C1 [ibrutinib]
In short: as §1

[10] = compound: CC(=O)c1cnc2ccc(-c3cc(Cl)c(O)c(Cl)c3)nc2c1N[C@H]1CC[C@H](CN(C)C)CC1
In short: as §1

ralimetinib = compound: CC(C)(C)Cn1c(N)nc2ccc(-c3[nH]c(C(C)(C)C)nc3-c3ccc(F)cc3)nc21 [ralimetinib]
In short: as §1

[11] = compound: CC(C)(O)CC(=O)NCCn1ccc2ncnc(Nc3ccc(Oc4cccc(C(F)(F)F)c4)c(Cl)c3)c21
In short: as §1

[12] = compound: CC(C)C1=C2N=C(C=C(N2N=C1)NCC3=CC=CC=C3)NCCCCCCN
In short: as §1

[13] = compound: CC(C)C[C@@H](C=O)NC(=O)[C@H](CC(C)C)NC(=O)[C@H](CC(C)C)NC(=O)OCc1ccccc1
In short: as §1

pinometostat = compound: CC(C)N(C[C@H]1O[C@@H](n2cnc3c(N)ncnc32)[C@H](O)[C@@H]1O)[C@H]1C[C@@H](CCc2nc3cc(C(C)(C)C)ccc3[nH]2)C1 [pinometostat]
In short: as §1

[14] = compound: CC1=C(C2=C(C=C1)C(=O)C3=CC=CC=C3N2CCCN)C
In short: as §1

[15] = compound: CC1=C(C(CC(=O)N1)C2=CC=C(C=C2)C(F)(F)F)C(=O)NC3=C(C=C4C(=C3)C=NN4)F
In short: as §1

Measured: log2 fold change

MTFR1L (UniProt Q9H019)
inactive: erlotinib -0.002 | [1] -0.013 | [2] -0.202 | [3] 0.064 | [4] -0.001 | [5] -0.03 | [6] 0.077 | [7] 0.13 | [8] 0.036 | [9] -0.027 | IRAK-1-4 Inhibitor I 0.04 | ibrutinib 0.048 | [10] -0.052 | ralimetinib -0.005 | [11] 0.014 | [12] -0.412 | [13] 0.047 | pinometostat 0.003 | [14] -0.05

MRPS25 (UniProt P82663)
inactive: erlotinib -0.069 | [1] -0.023 | [2] -0.022 | [3] 0.084 | [4] -0.048 | [5] 0 | [6] 0.083 | [7] 0.061 | [8] -0.036 | [9] -0.068 | IRAK-1-4 Inhibitor I -0.059 | ibrutinib 0.12 | [10] -0.021 | ralimetinib -0.007 | [11] 0.074 | [12] -0.071 | [13] 0.017 | pinometostat -0.018 | [14] -0.091

MRPS9 (UniProt P82933)
inactive: erlotinib -0.057 | [1] -0.019 | [2] -0.087 | [3] 0.137 | [4] 0.019 | [5] 0.04 | [6] 0.023 | [7] 0.043 | [8] 0.002 | [9] -0.095 | IRAK-1-4 Inhibitor I -0.061 | ibrutinib 0.024 | [10] -0.022 | ralimetinib -0.023 | [11] 0.001 | [12] -0.059 | [13] 0.07 | pinometostat 0.018
active: [14] -0.243

MUL1 (UniProt Q969V5)
inactive: erlotinib 0.015 | [1] 0.038 | [2] 0.073 | [3] -0.004 | [4] 0.026 | [5] 0.069 | [6] 0.095 | [7] 0.034 | [8] -0.025 | [9] 0.005 | IRAK-1-4 Inhibitor I 0.009 | ibrutinib 0.009 | [10] -0.113 | ralimetinib -0.008 | [11] -0.068 | [12] -0.004 | [13] 0.027 | pinometostat 0.021 | [14] -0.01

MTRES1 (UniProt Q9P0P8)
inactive: erlotinib -0.047 | [1] 0.015 | [2] -0.303 | [3] -0.041 | [4] 0.038 | [7] 0.151 | [8] -0.147 | [9] 0.006 | [10] -0.192 | [11] 0.036 | [12] 0.101 | [14] 0.091

MRPS24 (UniProt Q96EL2)
inactive: erlotinib -0.175 | [1] 0.022 | [2] -0.032 | [3] 0.062 | [4] 0.016 | [5] -0.02 | [6] 0.01 | [7] 0.039 | [8] 0.071 | [9] -0.1 | IRAK-1-4 Inhibitor I -0.048 | ibrutinib 0.009 | [10] -0.071 | ralimetinib -0.086 | [11] -0.094 | [12] -0.159 | [13] 0.051 | pinometostat 0.002 | [14] -0.227

MRPS12 (UniProt O15235)
inactive: erlotinib -0.013 | [1] 0.008 | [2] -0.13 | [3] 0.095 | [4] -0.052 | [5] 0.018 | [6] 0.099 | [7] 0.165 | [8] 0.025 | [9] -0.063 | IRAK-1-4 Inhibitor I 0.05 | ibrutinib -0.031 | [10] -0.033 | ralimetinib -0.017 | [11] -0.053 | [12] -0.123 | [13] 0.092 | pinometostat 0.111 | [14] -0.224

Random excerpt: 2 entries already listed.
MTFR1L (UniProt Q9H019)
inactive: erlotinib -0.002 | [1] -0.013 | [2] -0.202 | [3] 0.064 | [4] -0.001 | [5] -0.03 | [6] 0.077 | [7] 0.13 | [8] 0.036 | [9] -0.027 | IRAK-1-4 Inhibitor I 0.04 | ibrutinib 0.048 | [10] -0.052 | ralimetinib -0.005 | [11] 0.014 | [12] -0.412 | [13] 0.047 | pinometostat 0.003 | [14] -0.05

MRPS24 (UniProt Q96EL2)
inactive: erlotinib -0.175 | [1] 0.022 | [2] -0.032 | [3] 0.062 | [4] 0.016 | [5] -0.02 | [6] 0.01 | [7] 0.039 | [8] 0.071 | [9] -0.1 | IRAK-1-4 Inhibitor I -0.048 | ibrutinib 0.009 | [10] -0.071 | ralimetinib -0.086 | [11] -0.094 | [12] -0.159 | [13] 0.051 | pinometostat 0.002 | [14] -0.227

Additional records follow:

MYO19 (UniProt Q96H55)
inactive: erlotinib 0.032 | [1] -0.047 | [2] -0.103 | [3] -0.114 | [4] 0.011 | [5] 0.093 | [6] 0.027 | [7] 0.07 | IRAK-1-4 Inhibitor I 0.014 | ibrutinib -0.11 | [10] 0.168 | ralimetinib 0.115 | [11] 0.079 | [12] -0.06 | [13] 0.176 | pinometostat 0.014

MTOR (UniProt P42345)
inactive: erlotinib 0.015 | [1] 0.041 | [2] 0.021 | [3] -0.011 | [4] 0.036 | [5] 0.047 | [6] 0.034 | [7] -0.004 | [8] 0.065 | [9] -0.03 | IRAK-1-4 Inhibitor I -0.029 | ibrutinib -0.03 | [10] 0.183 | ralimetinib 0.011 | [11] -0.084 | [13] -0.002 | pinometostat 0.046 | [14] 0.014
active: [12] -0.288

MTHFD2L (UniProt Q9H903)
inactive: [2] -0.271 | [11] 0.115

MTMR10 (UniProt Q9NXD2)
inactive: [2] 0.114 | [5] 0.091 | IRAK-1-4 Inhibitor I -0.022 | ibrutinib -0.116 | [11] -0.108 | pinometostat -0.048 | [15] 0.067

MYH16 (UniProt Q9H6N6)
inactive: erlotinib -0.044 | [1] 0.102 | [3] 0.049 | [4] -0.21 | [5] 0.284 | [7] 0.044 | [8] -0.089 | [9] -0.082 | IRAK-1-4 Inhibitor I -0.177 | ibrutinib -0.02 | [10] 0.045 | [12] 0.026 | pinometostat -0.019
active: [14] 0.805
